# From PubChem BioAssay AID328 (DTP/NCI, 2004)
# The list shows only some results of the screen, not a fair sample: it gathers some chemical classes. Other doses and runs of a compound may be missing. T/C: endpoint of the treated group in % of that of the vehicle group. For survival time, the PubChem record calls one and a half times the control and up active, and a quarter to a half above the control has no call in these data; cut-offs in other NCI protocols can differ. Some entries show no survivor count and are marked so; the dose need not have been tolerated. Schedule codes are those of the source, taken here to give the interval after Q, in days (D) or hours (H), and the number of doses after X. Some entries were tested several times; the results are listed from low to high.
# System: BDF1 mice, P388 leukemia ip, median survival T/C
# Assay: NCI In Vivo Anticancer Drug Screen. Data for tumor model P388 Leukemia (intraperitoneal) in B6D2F1 (BDF1) mice
# Settings: T/C endpoint: median survival time, higher T/C = longer survival
# Description: The antitumor activity of compounds was measured in mice bearing transplantable tumors. Survival or tumor size were measured and the results are expressed as the measurement made in the treated group (T) divided by the measurement made in the vehicle treated control group (C). The tumor model used in this assay is P388 Leukemia (intraperitoneal) in B6D2F1 (BDF1) mice
# [1] = dose: 50.0 mg/kg/injection, schedule: Q04DX003 (ip), vehicle: saline with Tween-80
smiles,measurement,setting,value
NC1CCCCC1.NP(=O)(O)N(CCCl)CCCl,T/C,"dose: 0.75 mg/kg/injection, schedule: Q04DX003 (ip), vehicle: saline",110 % of control [survivor count not shown]
same,T/C,"dose: 1.5 mg/kg/injection, schedule: Q04DX003 (ip), vehicle: saline",95 % of control [survivor count not shown]
same,T/C,"dose: 3.0 mg/kg/injection, schedule: Q04DX003 (ip), vehicle: saline",105 % of control [survivor count not shown]
same,T/C,"dose: 6.25 mg/kg/injection, schedule: Q01DX009 (ip), vehicle: water",184 % of control [survivor count not shown]
same,T/C,"dose: 25.0 mg/kg/injection, schedule: Q01DX009 (ip), vehicle: water",252 % of control [survivor count not shown]
same,T/C,"dose: 25.0 mg/kg/injection, schedule: Q04DX003 (ip), vehicle: saline with Tween-80",230 % of control [survivor count not shown]
same,T/C,"dose: 25.0 mg/kg/injection, schedule: Q08DX002 (ip), vehicle: water",187 % of control [survivor count not shown]
same,T/C,"dose: 50.0 mg/kg/injection, schedule: Q01DX001 (ip), vehicle: water",170 % of control [survivor count not shown]
same,T/C,"dose: 50.0 mg/kg/injection, schedule: Q01DX009 (ip), vehicle: water",137 % of control [survivor count not shown]
same,T/C,[1],255 % of control [survivor count not shown]
same,T/C,"dose: 50.0 mg/kg/injection, schedule: Q04DX003 (ip), vehicle: water",224 % of control [survivor count not shown]
same,T/C,"dose: 100.0 mg/kg/injection, schedule: Q04DX003 (ip), vehicle: saline with Tween-80",250 [survivor count not shown] and 285 % of control [survivor count not shown]
same,T/C,"dose: 100.0 mg/kg/injection, schedule: Q04DX003 (ip), vehicle: water",258 % of control [survivor count not shown]
same,T/C,"dose: 100.0 mg/kg/injection, schedule: Q08DX002 (ip), vehicle: water",223 % of control [survivor count not shown]
same,T/C,"dose: 200.0 mg/kg/injection, schedule: Q01DX001 (ip), vehicle: water",264 % of control [survivor count not shown]
same,T/C,"dose: 200.0 mg/kg/injection, schedule: Q04DX003 (ip), vehicle: saline with Tween-80",108 % of control [survivor count not shown]
same,T/C,"dose: 200.0 mg/kg/injection, schedule: Q04DX003 (ip), vehicle: water",86 % of control [survivor count not shown]
same,T/C,"dose: 200.0 mg/kg/injection, schedule: Q08DX002 (ip), vehicle: water",126 % of control [survivor count not shown]
Cc1nc(-c2ccc(N(CCCl)CCCl)cc2)cs1,T/C,"dose: 132.0 mg/kg/injection, schedule: Q01DX009 (ip), vehicle: saline with Tween-80",91 % of control [survivor count not shown]
same,T/C,"dose: 200.0 mg/kg/injection, schedule: Q01DX009 (ip), vehicle: saline with Tween-80",108 % of control [survivor count not shown]
same,T/C,"dose: 300.0 mg/kg/injection, schedule: Q01DX009 (ip), vehicle: saline with Tween-80",125 % of control [survivor count not shown]
NC(Cc1ccc(O)c(N(CCCl)CCCl)c1)C(=O)O (configuration not stated),T/C,"dose: 0.05 mg/kg/injection, schedule: Q01DX010 (ip), vehicle: saline",245 % of control [survivor count not shown]
same,T/C,"dose: 0.1 mg/kg/injection, schedule: Q01DX010 (ip), vehicle: saline",255 % of control [survivor count not shown]
same,T/C,"dose: 0.2 mg/kg/injection, schedule: Q01DX010 (ip), vehicle: saline",300 % of control [survivor count not shown]
same,T/C,"dose: 0.4 mg/kg/injection, schedule: Q01DX010 (ip), vehicle: saline",300 % of control [survivor count not shown]
same,T/C,"dose: 0.66 mg/kg/injection, schedule: Q01DX010 (ip), vehicle: saline",300 % of control [survivor count not shown]
same,T/C,"dose: 1.0 mg/kg/injection, schedule: Q01DX010 (ip), vehicle: saline",300 % of control [survivor count not shown]
same,T/C,"dose: 1.5 mg/kg/injection, schedule: Q01DX010 (ip), vehicle: saline",127 % of control [survivor count not shown]
same,T/C,"dose: 2.25 mg/kg/injection, schedule: Q01DX010 (ip), vehicle: saline",90 % of control [survivor count not shown]
same,T/C,"dose: 2.0 micrograms/kg/injection, schedule: Q01DX010 (ip), vehicle: saline",270 % of control [survivor count not shown]
same,T/C,"dose: 5.0 micrograms/kg/injection, schedule: Q01DX010 (ip), vehicle: saline",295 % of control [survivor count not shown]
same,T/C,"dose: 10.0 micrograms/kg/injection, schedule: Q01DX010 (ip), vehicle: saline",275 % of control [survivor count not shown]
same,T/C,"dose: 20.0 micrograms/kg/injection, schedule: Q01DX010 (ip), vehicle: saline",300 % of control [survivor count not shown]
ClCCN(CCCl)Cc1nc2cc(Cl)c(Cl)cc2[nH]1,T/C,"dose: 33.0 mg/kg/injection, schedule: Q04DX003 (ip), vehicle: saline with Tween-80",150 % of control [survivor count not shown]
same,T/C,[1],137 % of control [survivor count not shown]
same,T/C,"dose: 75.0 mg/kg/injection, schedule: Q04DX003 (ip), vehicle: saline with Tween-80",145 % of control [survivor count not shown]
O=P(N(CCCl)CCCl)(N1CC1)N1CC1,T/C,"dose: 264.0 mg/kg/injection, schedule: Q04DX003 (ip), vehicle: saline with Tween-80",127 [survivor count not shown] and 145 % of control [survivor count not shown]
same,T/C,"dose: 400.0 mg/kg/injection, schedule: Q04DX003 (ip), vehicle: saline with Tween-80",125 [survivor count not shown] and 145 % of control [survivor count not shown]
same,T/C,"dose: 600.0 mg/kg/injection, schedule: Q04DX003 (ip), vehicle: saline with Tween-80",133 [survivor count not shown] and 209 % of control [survivor count not shown]
ClCCN(CCCl)c1ccc(Oc2ccccc2)cc1,T/C,"dose: 8.8 mg/kg/injection, schedule: Q01DX009 (ip), vehicle: saline with Tween-80",114 % of control [survivor count not shown]
same,T/C,"dose: 13.3 mg/kg/injection, schedule: Q01DX009 (ip), vehicle: saline with Tween-80",97 % of control [survivor count not shown]
same,T/C,"dose: 20.0 mg/kg/injection, schedule: Q01DX009 (ip), vehicle: saline with Tween-80",106 % of control [survivor count not shown]
same,T/C,"dose: 22.0 mg/kg/injection, schedule: Q01DX009 (ip), vehicle: saline with Tween-80",98 % of control [survivor count not shown]
same,T/C,"dose: 29.3 mg/kg/injection, schedule: Q01DX009 (ip), vehicle: other",171 % of control [survivor count not shown]
same,T/C,"dose: 30.0 mg/kg/injection, schedule: Q01DX009 (ip), vehicle: saline with Tween-80",100 % of control [survivor count not shown]
same,T/C,"dose: 33.0 mg/kg/injection, schedule: Q01DX009 (ip), vehicle: saline with Tween-80",103 % of control [survivor count not shown]
same,T/C,"dose: 44.0 mg/kg/injection, schedule: Q01DX009 (ip), vehicle: other",131 % of control [survivor count not shown]
same,T/C,"dose: 50.0 mg/kg/injection, schedule: Q01DX009 (ip), vehicle: saline with Tween-80",122 % of control [survivor count not shown]
same,T/C,"dose: 66.0 mg/kg/injection, schedule: Q01DX009 (ip), vehicle: other",164 % of control [survivor count not shown]
same,T/C,"dose: 100.0 mg/kg/injection, schedule: Q01DX009 (ip), vehicle: other",145 [survivor count not shown] and 164 % of control [survivor count not shown]
same,T/C,"dose: 200.0 mg/kg/injection, schedule: Q01DX009 (ip), vehicle: other",175 % of control [survivor count not shown]
same,T/C,"dose: 400.0 mg/kg/injection, schedule: Q01DX009 (ip), vehicle: other",100 % of control [survivor count not shown]
